# Source: the supplement of paper PMC6411743
# ± gives the standard deviation of the averaged measurements. Only a part is listed here, and it is no random draw.
# Legend:
# Test in all cases: NP40-soluble protein abundance relative to vehicle (solubility fold change) (ratio); higher = more soluble protein in presence of ATP
# [1] = molecular target: T1, UniProt Q8N0Y2 and related entries
# T1 sequence (whole entry): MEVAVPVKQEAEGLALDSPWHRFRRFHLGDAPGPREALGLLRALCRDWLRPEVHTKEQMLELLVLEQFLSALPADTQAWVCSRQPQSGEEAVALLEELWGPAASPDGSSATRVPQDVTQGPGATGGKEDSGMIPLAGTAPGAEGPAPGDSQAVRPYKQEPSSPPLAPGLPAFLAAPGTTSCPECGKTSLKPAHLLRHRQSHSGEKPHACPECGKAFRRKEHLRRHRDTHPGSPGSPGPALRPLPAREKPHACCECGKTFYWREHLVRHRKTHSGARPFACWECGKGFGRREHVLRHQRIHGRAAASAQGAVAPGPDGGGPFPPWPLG
# Outline: (§1)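 In three independent experiments, Jurkat crude lysate made by Dounce homogenisation was treated for 10 min at room temperature and then 3 min at 37 °C with eight concentrations ranging from 0.1 to 10 mM. It was then solubilised with 0.8% NP40 plus benzonase for 60 min at 4 °C and ultracentrifuged. The supernatant was TMT-labelled for LC-MS/MS, and each value is the fold change against the detergent-processed vehicle for the same replicate, using vsn-normalised intensities.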
# UniProt Q8N0Z3 = molecular target: T2, UniProt Q8N0Z3
# T2 sequence (whole entry): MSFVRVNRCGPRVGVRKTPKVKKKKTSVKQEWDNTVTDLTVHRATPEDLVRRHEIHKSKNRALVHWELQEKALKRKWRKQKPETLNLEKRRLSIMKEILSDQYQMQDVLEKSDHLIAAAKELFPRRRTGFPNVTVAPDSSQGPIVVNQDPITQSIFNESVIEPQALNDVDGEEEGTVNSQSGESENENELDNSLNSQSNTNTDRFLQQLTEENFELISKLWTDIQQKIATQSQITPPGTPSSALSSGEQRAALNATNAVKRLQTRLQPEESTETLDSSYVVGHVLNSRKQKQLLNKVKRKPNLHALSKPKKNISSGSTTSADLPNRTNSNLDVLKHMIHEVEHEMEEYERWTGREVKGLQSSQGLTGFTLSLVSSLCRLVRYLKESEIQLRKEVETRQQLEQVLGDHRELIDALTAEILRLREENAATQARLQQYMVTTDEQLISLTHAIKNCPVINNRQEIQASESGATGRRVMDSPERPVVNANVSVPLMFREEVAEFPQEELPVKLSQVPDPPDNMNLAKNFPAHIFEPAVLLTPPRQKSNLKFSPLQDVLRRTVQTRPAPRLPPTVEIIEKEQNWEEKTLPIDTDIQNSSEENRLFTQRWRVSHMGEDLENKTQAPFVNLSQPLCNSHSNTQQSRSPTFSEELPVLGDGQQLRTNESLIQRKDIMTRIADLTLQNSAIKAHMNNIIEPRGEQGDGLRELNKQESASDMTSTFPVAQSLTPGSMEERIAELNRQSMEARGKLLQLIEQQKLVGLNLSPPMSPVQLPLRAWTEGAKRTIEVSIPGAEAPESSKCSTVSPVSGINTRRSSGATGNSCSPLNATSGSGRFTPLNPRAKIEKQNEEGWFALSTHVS
# Outline: as §1
# [2] = molecular target: T3, UniProt Q8N4Q1 and related entries
# T3 sequence (whole entry): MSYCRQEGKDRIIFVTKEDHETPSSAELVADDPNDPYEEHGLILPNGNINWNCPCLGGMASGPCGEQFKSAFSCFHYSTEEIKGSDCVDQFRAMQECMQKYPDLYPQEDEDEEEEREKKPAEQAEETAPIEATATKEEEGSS
# Outline: as §1
# UniProt Q8N5L8 = molecular target: T4, UniProt Q8N5L8
# T4 sequence (whole entry): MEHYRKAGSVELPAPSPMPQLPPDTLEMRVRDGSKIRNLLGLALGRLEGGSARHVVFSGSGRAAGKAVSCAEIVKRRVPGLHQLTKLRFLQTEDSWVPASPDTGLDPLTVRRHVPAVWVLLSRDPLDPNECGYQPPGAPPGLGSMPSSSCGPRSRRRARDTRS
# Outline: as §1
# [3] = molecular target: T5, UniProt Q8N5Y8 and related entries
# T5 sequence (whole entry): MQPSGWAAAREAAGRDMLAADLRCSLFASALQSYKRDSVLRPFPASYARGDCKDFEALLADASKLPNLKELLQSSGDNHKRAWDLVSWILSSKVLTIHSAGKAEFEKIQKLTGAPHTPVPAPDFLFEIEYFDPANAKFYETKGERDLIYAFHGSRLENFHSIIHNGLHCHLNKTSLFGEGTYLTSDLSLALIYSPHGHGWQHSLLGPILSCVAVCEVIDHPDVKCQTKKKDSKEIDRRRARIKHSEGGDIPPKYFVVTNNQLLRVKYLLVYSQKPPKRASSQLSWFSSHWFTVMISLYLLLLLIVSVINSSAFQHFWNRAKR
# Outline: as §1
# [4] = molecular target: T6, UniProt Q8N8K9 and related entries
# T6 sequence (whole entry): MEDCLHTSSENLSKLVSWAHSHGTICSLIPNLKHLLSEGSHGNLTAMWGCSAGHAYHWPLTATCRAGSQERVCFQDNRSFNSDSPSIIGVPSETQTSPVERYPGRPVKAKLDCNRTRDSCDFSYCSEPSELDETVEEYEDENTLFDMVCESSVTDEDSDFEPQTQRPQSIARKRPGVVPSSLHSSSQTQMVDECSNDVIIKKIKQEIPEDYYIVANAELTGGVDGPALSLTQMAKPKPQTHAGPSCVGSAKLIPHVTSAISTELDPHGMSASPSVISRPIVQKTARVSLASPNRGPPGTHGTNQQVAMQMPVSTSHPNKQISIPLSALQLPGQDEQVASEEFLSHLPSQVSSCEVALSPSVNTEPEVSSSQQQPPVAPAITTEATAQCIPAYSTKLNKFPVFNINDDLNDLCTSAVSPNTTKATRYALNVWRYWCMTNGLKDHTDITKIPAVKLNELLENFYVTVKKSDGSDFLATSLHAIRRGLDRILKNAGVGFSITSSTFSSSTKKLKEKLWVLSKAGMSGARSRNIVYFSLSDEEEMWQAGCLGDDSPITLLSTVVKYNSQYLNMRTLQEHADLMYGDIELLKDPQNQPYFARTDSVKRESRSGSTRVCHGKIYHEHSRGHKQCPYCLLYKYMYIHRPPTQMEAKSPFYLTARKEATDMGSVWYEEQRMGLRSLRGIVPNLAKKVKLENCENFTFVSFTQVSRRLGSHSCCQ
# Outline: as §1
smiles,measurement,setting,value
Nc1ncnc2c1ncn2[C@@H]1O[C@H](COP(=O)(O)OP(=O)(O)OP(=O)(O)O)[C@@H](O)[C@H]1O [adenosine triphosphate],NP40-soluble protein abundance,[1]; concentration: 6mM,1.13 ± 0.04
same,NP40-soluble protein abundance,[1]; concentration: 8mM,1.04 ± 0.059
same,NP40-soluble protein abundance,[1]; concentration: 10mM,1.05 ± 0.055
same,NP40-soluble protein abundance,UniProt Q8N0Z3; concentration: 1mM,1.02 ± 0.08
same,NP40-soluble protein abundance,UniProt Q8N0Z3; concentration: 2mM,0.991 ± 0.032
same,NP40-soluble protein abundance,UniProt Q8N0Z3; concentration: 4mM,1.01 ± 0.061
same,NP40-soluble protein abundance,UniProt Q8N0Z3; concentration: 6mM,1.05 ± 0.088
same,NP40-soluble protein abundance,UniProt Q8N0Z3; concentration: 8mM,0.984 ± 0.035
same,NP40-soluble protein abundance,UniProt Q8N0Z3; concentration: 10mM,1 ± 0.044
same,NP40-soluble protein abundance,[2]; concentration: 1mM,1.02 ± 0.15
same,NP40-soluble protein abundance,[2]; concentration: 2mM,0.966 ± 0.063
same,NP40-soluble protein abundance,[2]; concentration: 4mM,1.01 ± 0.029
same,NP40-soluble protein abundance,[2]; concentration: 6mM,1.07 ± 0.15
same,NP40-soluble protein abundance,[2]; concentration: 8mM,0.93 ± 0.043
same,NP40-soluble protein abundance,[2]; concentration: 10mM,0.892 ± 0.079
same,NP40-soluble protein abundance,UniProt Q8N5L8; concentration: 1mM,0.989 ± 0.082
same,NP40-soluble protein abundance,UniProt Q8N5L8; concentration: 2mM,0.995 ± 0.0069
same,NP40-soluble protein abundance,UniProt Q8N5L8; concentration: 4mM,1.04 ± 0.038
same,NP40-soluble protein abundance,UniProt Q8N5L8; concentration: 6mM,1.03 ± 0.071
same,NP40-soluble protein abundance,UniProt Q8N5L8; concentration: 8mM,1.02 ± 0.048
same,NP40-soluble protein abundance,UniProt Q8N5L8; concentration: 10mM,1.045 ± 0.0075
same,NP40-soluble protein abundance,[3]; concentration: 1mM,0.984 ± 0.062
same,NP40-soluble protein abundance,[3]; concentration: 2mM,1.02 ± 0.037
same,NP40-soluble protein abundance,[3]; concentration: 4mM,0.96 ± 0.025
same,NP40-soluble protein abundance,[3]; concentration: 6mM,0.978 ± 0.029
same,NP40-soluble protein abundance,[3]; concentration: 8mM,0.981 ± 0.054
same,NP40-soluble protein abundance,[3]; concentration: 10mM,0.966 ± 0.013
same,NP40-soluble protein abundance,[4]; concentration: 1mM,1.01 ± 0.068
same,NP40-soluble protein abundance,[4]; concentration: 2mM,0.996 ± 0.06
same,NP40-soluble protein abundance,[4]; concentration: 4mM,1.05 ± 0.088
same,NP40-soluble protein abundance,[4]; concentration: 6mM,0.979 ± 0.11

# Shown with tabs: part of the list above
smiles	measurement	setting	value
Nc1ncnc2c1ncn2[C@@H]1O[C@H](COP(=O)(O)OP(=O)(O)OP(=O)(O)O)[C@@H](O)[C@H]1O [adenosine triphosphate]	NP40-soluble protein abundance	UniProt Q8N5L8; concentration: 1mM	0.989 ± 0.082
same	NP40-soluble protein abundance	UniProt Q8N5L8; concentration: 2mM	0.995 ± 0.0069
